US10752628B2, “Compounds and methods for treating synovial sarcomas” (THE BROAD INSTITUTE, INC., priority 2015, dated 2020)
For at least one compound, name, drawing or mass did not settle the structure.

How the values were obtained:
Assay type in all cases: cell-based, human
[1] = system: BAF47 within the BAF complex; test: anti-Brg immunoprecipitation of BAF complexes followed by anti-BAF47 western blot in Aska cells; conditions: 48 hours at 16 μM, relative to DMSO control
Method: Briefly, naïve, unmodified Aska SS cells were treated for 48 hours at 16 μM concentration of all 5 positive hit compounds (as well as negative compounds for controls). The western blot reflects IPs of BAF complexes highlighting increased incorporation/stability of BAF47 relative to DMSO control. The bar graph highlights levels of BAF47 (measured via western blot quantitative densitometry) over n=3 experiments for each compound, including testing against three other negative compounds. […]
(§1) Nuclear extracts were resuspended in IP buffer and precleared for 30 minutes at 4 degrees C. using Protein G/A Sepharose beads (GE Healthcare). The protein concentration was determined using Bradford assay and adjusted to a final volume of 250 μL at a final concentration of 1.5 mg/mL with IP buffer. […]

[2] = system: BAF47 within the BAF complex; test: BAF155 immunoprecipitation and western blot for BAF47 in Aska cells; conditions: twenty-four hours, single 30 micromolar dose
Method: These include resynthesized positive hits for Compounds 5-6.
FIG. 8 comprises a series of images and graph illustrating the activity of Compound 5 in Yamato cells. Briefly, Yamato cells were treated with 30 μM compound for 24 hours over n=5 replicates. The graph depicts levels of BAF47 in DMSO treated vs Compound 5-treated cells.
All cell types were grown under standard conditions and lysed and homogenized in Buffer A (10 mM Hepes (pH 7.6), 25 mM KCl, 1 mM EDTA, 10% glycerol, 1 mM DTT, and protease inhibitors (complete mini tablets (Roche) supplemented with 1 mM PMSF) on ice. Nuclei were sedimented by centrifugation (1,000×g), resuspended in Buffer C (10 mM Hepes (pH 7.6), 3 mM MgCl2, 100 mM KCl, 0.1 mM EDTA, 10% glycerol, 1 mM DTT, and protease inhibitors), and lysed by the addition of ammonium sulfate to a final concentration of 0.3 M. Soluble nuclear proteins were separated by the insoluble chromatin fraction by ultracentrifugation (100,000×g) and precipitated with […] ammonium sulfate for 20 min on ice. […]
as §1

[3] = system: Aska synovial sarcoma cells; test: Synovial sarcoma cell viability by CellTiter Glo luminescence
Method: FIGS. 15A-15C comprise a set of graphs illustrating the finding that compounds of the invention reduce synovial sarcoma cell viability as measured by CellTiter Glog luminescence.
The effect of compounds of the invention on synovial sarcoma cell viability was assessed as measured by CellTiter Glo® luminescence (FIGS. 15A-15B). Briefly, cells were plated under standard conditions and allowed to grow to 75% confluence prior to treatment with compounds. CellTiterGlo reagent was used to measure cell viability.

COc1ccc2c3c([nH]c2c1)[C@H](CO)N(Cc1ccccc1F)CC31CCN(C(=O)C2CCC2)CC1 [Compound 6, (R)-cyclobutyl(2′-(2-fluorobenzyl)-1′-(hydroxymethyl)-7′-methoxy-1′,2′,3′,9′-tetrahydrospiro[piperidine-4,4′-pyrido[3,4-b]indol]-1-yl)methanone]
BAF47 stabilization (anti-Brg IP, anti-BAF47 western blot) [1]: stabilized BAF47
BAF47 stabilization within the BAF complex (BAF155 immunoprecipitation) [2]: stabilized BAF47 within the BAF complex
Cell viability (CellTiter Glo luminescence) [3]: resulted in cell toxicity
